Test results published in PMC9977495.
Results are given in words; binding and its absence hold for the method and conditions named. In cells and extracts the contact can be indirect. Some results given as binding are weak or reduced against the parent protein; the word gives no strength. Tags and fused reporters may be left off the sequences shown.

Molecular target: T1, GST-ICAT (inhibitor of catenin and T cell factor [TCF]) (UniProt Q9NSA3)
T1 sequence: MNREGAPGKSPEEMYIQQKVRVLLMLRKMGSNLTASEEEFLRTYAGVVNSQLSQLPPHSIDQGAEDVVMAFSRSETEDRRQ
Test: pull-down; 1000 ug lysate of rat AT2 cells (plated at three densities; infected with adenovirus for GFP, WNT3A or WNT5A, lysed after 72 h) with 20 ug GST-ICAT and glutathione-sepharose beads, rocked at 4°C for 2 hours; beads washed with 0.1% triton buffer; immunoblot; only the target purified

B1: β-catenin (protein, UniProt Q9WU82 1-781)
chain: MATQADLMELDMAMEPDRKAAVSHWQQQSYLDSGIHSGATTTAPSLSGKGNPEEEDVDTSQVLYEWEQGFSQSFTQEQVADIDGQYAMTRAQRVRAAMFPETLDEGMQIPSTQFDAAHPTNVQRLAEPSQMLKHAVVNLINYQDDAELATRAIPELTKLLNDEDQVVVNKAAVMVHQLSKKEASRHAIMRSPQMVSAIVRTMQNTNDVETARCTAGTLHNLSHHREGLLAIFKSGGIPALVKMLGSPVDSVLFYAITTLHNLLLHQEGAKMAVRLAGGLQKMVALLNKTNVKFLAITTDCLQILAYGNQESKLIILASGGPQALVNIMRTYTYEKLLWTTSRVLKVLSVCSSNKPAIVEAGGMQALGPHLTDPSQRLVQNCLWTLRNLSDAATKQEGMEGLLGTLVQLLGSDDINVVTCAAGILSNLTCNNYKNKMMVCQVGGIEALVRTVLRAGDREDITEPAICALRHLTSRHQEAEMAQNAVRLHYGLPVVVKLLHPPSHWPLIKATVGLIRNLALCPANHAPLREQGAIPRLVQLLVRAHQDTQRRTSMGGTQQQFVEGVRMEEIVEGCTGALHILARDVHNRIVIRGLNTIPLFVQLLYSPIENIQRVAAGVLCELAQDKEAAEAIEAEGATAPLTELLHSRNEGVATYAAAVLFRMSEDKPQDYKKRLSVELTSSLFRTEPMAWNETADLGLDIGAQGEALGYRQDDPSYRSFHSGGYGQDALGMDPMMEHEMGGHHPGADYPVDGLPDLGHAQDLMDGLPPGDSNQLAWFDTDL
Question: Which binding does the source give for B1 here?
Answer: The binding was “binds”.
